Among the data in PMC7819943, “Rice protein-binding microarrays: a tool to detect cis-acting elements near promoter regions in rice” are binding signal values, retold here.

The chains behind the UniProt entries cited, without tags or fusion partners.
UniProt Q0JBA9, entry or part of it: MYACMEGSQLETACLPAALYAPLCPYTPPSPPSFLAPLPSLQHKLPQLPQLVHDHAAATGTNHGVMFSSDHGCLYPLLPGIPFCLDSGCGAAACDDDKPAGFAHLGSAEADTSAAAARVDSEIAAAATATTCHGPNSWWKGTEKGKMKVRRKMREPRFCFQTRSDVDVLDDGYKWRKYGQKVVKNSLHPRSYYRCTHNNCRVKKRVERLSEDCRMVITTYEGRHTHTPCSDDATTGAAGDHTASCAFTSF

The other results are listed elsewhere or left out.

The target of this test is OsWRKY34 (Oryza sativa, UniProt Q0JBA9 1-250). As to the kind of experiment: protein-binding microarray (RPBM); PBS, 2% BSA, 51.3 ng/ul salmon testes DNA, 50 uM zinc acetate, 200 nM TF, 25 C, 1 h; high values mean tight binding. As to conditions: protein: recombinant; tags: N-terminal polyhistidine and DsRed monomer fusion (pET32a); label: CyDye5-dUTP incorporated in the synthesized complementary strand; 3' TTTTT single-stranded linker to array surface; dsDNA, one strand shown. A digest of the protocol: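 A custom Agilent array was converted to double-stranded form by primer extension with Cy5-dUTP and blocked with 2% BSA. Protein at 200 nM in PBS with 2% BSA, salmon testes DNA and 50 µM zinc acetate was applied for 1 h at 25 °C, followed by washing. The proteins were polyhistidine–DsRed N-terminal fusions of transcription factors, expressed in E. coli BL21-CodonPlus and Ni–NTA-purified. The binding signal is per-feature fluorescence intensity (arbitrary units) from an Axon 4000B scanner.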
On to “CCGCCGAGCTCCTTATACACCATGCATTCTCGCCGGCAATCGGAGTCACCTAGTGCAG”, for which the binding signal is 12300 fluorescence intensity (a.u.).

“GAGCTGTAGTATCATCATGTAATAGTGTTTGCTTCTTATTCGGAGTCACCTAGTGCAG”: the binding signal is 14300 fluorescence intensity (a.u.).

On to “AGCTACCATCCATGATCTTTGTGTTTTGATTGTAAAAGACCGGAGTCACCTAGTGCAG”, for which the binding signal was 11000 fluorescence intensity (a.u.).

Consider “TAGCCATCCTGCCTATTGCGACATTCTTACTCTACTTTGGCGGAGTCACCTAGTGCAG”, for which the binding signal was 9030 fluorescence intensity (a.u.).

In the case of “TTGACTGTGTTTGTTTGTTTACCTATCTATAACACTCTTCCGGAGTCACCTAGTGCAG”, the binding signal is 9270 fluorescence intensity (a.u.).

Turning to “TTTGTAGTAATTCTGTGGTGATTTGGATATCTTGCAACAACGGAGTCACCTAGTGCAG”, the binding signal is 10400 fluorescence intensity (a.u.).

For “TCTCCCAGCTAGTCAGCTACCCCATGGATGTTTAACATTACGGAGTCACCTAGTGCAG”, the binding signal is 8450 fluorescence intensity (a.u.).

For “TCAAATCAGAGAATTTCATTCTATATATGGAGTTTATCCTCGGAGTCACCTAGTGCAG”, the binding signal was 9070 fluorescence intensity (a.u.).

For “TATATATATATATATATATATATATAATCTACTTGGCATGCGGAGTCACCTAGTGCAG”, the binding signal is 11400 fluorescence intensity (a.u.).

Consider “GCCTAATTAATTCGTCATTAGTACATGTGGGTTACTGTAGCGGAGTCACCTAGTGCAG”, for which the binding signal was 9090 fluorescence intensity (a.u.).

In the case of “TGGTTGGCAGCTGATTTGGTAATTGCTCTCTCATTCGCTCCGGAGTCACCTAGTGCAG”, the binding signal is 13600 fluorescence intensity (a.u.).

As for “ATGGGTTGGATTGGTTTGGATTCTAAGAGAAGACAAATGACGGAGTCACCTAGTGCAG”, the binding signal was 8420 fluorescence intensity (a.u.).

“CACACAACGCTTCTGGTTCTCACACACCAAGGAGGGGACGCGGAGTCACCTAGTGCAG”: the binding signal is 8980 fluorescence intensity (a.u.).

Take “ATCCATCCCTACCTCAGCATCTCTCTCTCTCATTCTCTCTCGGAGTCACCTAGTGCAG”: the binding signal was 9940 fluorescence intensity (a.u.).

Turning to “CTTCTTATTTCCTCTGTTTTTCTTTCGCGTTTTTTATGGTCGGAGTCACCTAGTGCAG”, the binding signal was 13600 fluorescence intensity (a.u.).

With “CTTGTTTTCTGCTTCCTTGCCTTGCTGCAACATTACCAACCGGAGTCACCTAGTGCAG”, the binding signal was 9370 fluorescence intensity (a.u.).

In the case of “ATCGCATCACCGCCGCGCCGCGCCGCCACCGTCCTCTCCGCGGAGTCACCTAGTGCAG”, the binding signal was 8830 fluorescence intensity (a.u.).

In the case of “TCCTTTATTTTTCCCATATCTCTCCTTTTTTTACACTTTTCGGAGTCACCTAGTGCAG”, the binding signal was 13600 fluorescence intensity (a.u.).

In the case of “AGAGGCTAAGGAGAGCAACTCCACTCACTCTGTGTTTCACCGGAGTCACCTAGTGCAG”, the binding signal was 8410 fluorescence intensity (a.u.).

In the case of “GCTCGCCGCCGGCCGCCGCCACCACCTTCCCGTAGCTGTACGGAGTCACCTAGTGCAG”, the binding signal was 8300 fluorescence intensity (a.u.).

Take “AAACCGCCATTAATTTACACTAATCACTCCTACTACTCCTCGGAGTCACCTAGTGCAG”: the binding signal is 10200 fluorescence intensity (a.u.).

With “GGCAGTCGTATCTTTCCTTCATCACATTGCACATACAACTCGGAGTCACCTAGTGCAG”, the binding signal was 14900 fluorescence intensity (a.u.).

Consider “TCATCGATTTTTCAAGTGCTGGTGTATTCTTTTGTGAGTGCGGAGTCACCTAGTGCAG”, for which the binding signal is 8990 fluorescence intensity (a.u.).

Consider “AGTAGCGCCCATCTGTTCGCCCATTCCCGAACCCGTCGTCCGGAGTCACCTAGTGCAG”, for which the binding signal is 8710 fluorescence intensity (a.u.).

For the sequence “ACCGCACGTTCCGCAATTAATTCCGTTCCGAATCCCGAGCCGGAGTCACCTAGTGCAG”, the binding signal was 8220 fluorescence intensity (a.u.).

On to “ACACTAACACGTGGCGCAATCCTCATCTCTCGCTCCGGATCGGAGTCACCTAGTGCAG”, for which the binding signal is 8120 fluorescence intensity (a.u.).

In the case of “CGTCGTCTTCATCATCGTCGCCCCGCGATTCCCGTGTTGCCGGAGTCACCTAGTGCAG”, the binding signal was 9550 fluorescence intensity (a.u.).

In the case of “TTGCCACGGCCTTGTTTAGATCCACCCTAAAATTTTTCACCGGAGTCACCTAGTGCAG”, the binding signal was 8740 fluorescence intensity (a.u.).

For “ATTTTTCTCATGGATTGACTTTCTACCTTAGTCAAACACTCGGAGTCACCTAGTGCAG”, the binding signal was 9530 fluorescence intensity (a.u.).

“GCTGGCGCCTCATTGCCCGTCTGTTCCGCCACCTACCACCCGGAGTCACCTAGTGCAG”: the binding signal was 9530 fluorescence intensity (a.u.).

Regarding “ATAAATTATTAGTACTATTCCATATACTACATTTTCTTCTCGGAGTCACCTAGTGCAG”, the binding signal was 8440 fluorescence intensity (a.u.).

With “GACTTTTCGGTTCTTAAGCTGACTTATAATTAGTCTAAACCGGAGTCACCTAGTGCAG”, the binding signal is 8630 fluorescence intensity (a.u.).

“TAGTTGAGGGATCTGTTGTATATGGTTTTGGGGTTGAAGGCGGAGTCACCTAGTGCAG”: the binding signal is 11800 fluorescence intensity (a.u.).

As for “CCCGTCGATCCACCGCGGGGACAAGCTCTAGATCTCTCTCCGGAGTCACCTAGTGCAG”, the binding signal was 8440 fluorescence intensity (a.u.).

As for “AATTATGACTCTCTTGTGTGTTCCATATATATAAACTGTACGGAGTCACCTAGTGCAG”, the binding signal was 8050 fluorescence intensity (a.u.).

Consider “CAGCAGTTTAAAACTCCGAACCCCGTTGCATCTCTACCAACGGAGTCACCTAGTGCAG”, for which the binding signal is 8320 fluorescence intensity (a.u.).

In the case of “TTTTCTATTTCCCACTACTTTTCGTCATTTTTCTAATATTCGGAGTCACCTAGTGCAG”, the binding signal was 18100 fluorescence intensity (a.u.).

“GTAAACAATATTATCTATATCTACTTTTCTTTTCTTTTTTCGGAGTCACCTAGTGCAG”: the binding signal is 8840 fluorescence intensity (a.u.).

For the sequence “AGTAGTTAGCCTACTAGTACCATATATTAGCTCACGCCAACGGAGTCACCTAGTGCAG”, the binding signal is 8560 fluorescence intensity (a.u.).

On to “AGGGGCTTGATTCGGTGGAGATTGTGATTTTGCGAGGGCTCGGAGTCACCTAGTGCAG”, for which the binding signal is 10100 fluorescence intensity (a.u.).

For “CAGCACCAACTCTCGTACGCCGCTGATATACCGTATAAAACGGAGTCACCTAGTGCAG”, the binding signal is 8430 fluorescence intensity (a.u.).

As for “TCTATGTGTCTGGCCGGTTTTCTTCTCCATTGAAGTCTATCGGAGTCACCTAGTGCAG”, the binding signal is 9080 fluorescence intensity (a.u.).

“ACCTCTGGCTCTAGCTCCACCTCTTCTGAAGCTGGAGCCCCGGAGTCACCTAGTGCAG”: the binding signal was 8150 fluorescence intensity (a.u.).

As to “CGTGTCGGTGTCTCATCTCTCTCTCTCTTCCCATCCGCCGCGGAGTCACCTAGTGCAG”, the binding signal is 8790 fluorescence intensity (a.u.).

As to “CACAGCCAATTCATCGAACACCTTGTCTGCTAACACCATGCGGAGTCACCTAGTGCAG”, the binding signal was 8080 fluorescence intensity (a.u.).

Consider “CGCGCCTGTCTGTCTCTGTTTGATTGATTCTTCTACGTCGCGGAGTCACCTAGTGCAG”, for which the binding signal is 8610 fluorescence intensity (a.u.).

For the sequence “GGGAATCTCTGTCCAAATAAAGGCCTTTGGCTCATCTCTGCGGAGTCACCTAGTGCAG”, the binding signal is 8070 fluorescence intensity (a.u.).

“CCGCTCCTCCGCCTCCATTTCCACGACTGCTTCGTCAGGGCGGAGTCACCTAGTGCAG”: the binding signal was 8220 fluorescence intensity (a.u.).

For the sequence “GGAGCTGACAATTGGGTCCCAAATTTTTTTATTTTCATTCCGGAGTCACCTAGTGCAG”, the binding signal is 8730 fluorescence intensity (a.u.).

“AGATCAGAGGGTGTATTGCAGTATTGGGTAGTTGGATATGCGGAGTCACCTAGTGCAG”: the binding signal is 8460 fluorescence intensity (a.u.).

As for “CGCCACCTCCGCATTCCGTTCCGACCAGCCGATCGGTTTCCGGAGTCACCTAGTGCAG”, the binding signal was 8750 fluorescence intensity (a.u.).

With “TGTGTATGGGAAATGGTATCTCTTGCTGCACTGTCAGAAACGGAGTCACCTAGTGCAG”, the binding signal was 10300 fluorescence intensity (a.u.).

Regarding “CGGGTACATTGATCCTATCCCTTATCACGGCAACACGCAACGGAGTCACCTAGTGCAG”, the binding signal is 8530 fluorescence intensity (a.u.).

Consider “GGTTCCTAACAAACAGTATCCATGAGGTGTTACTTTACGTCGGAGTCACCTAGTGCAG”, for which the binding signal is 8900 fluorescence intensity (a.u.).
